The other results are listed elsewhere or left out. Further columns of the screen follow, without active or inactive calls. Compounds called inactive in the main read-out are mostly missing here. Words in brackets tell the shape of the fitted curve; partial curves, single points and poor fits give uncertain potencies.

The nature of this experiment: qHTS Assay for Lipid Storage Modulators in Drosophila S3 Cells.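 As to cell number change: cells counted by Cell Tracker Red CMTPX staining in the red channel.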 To be noted: BODIPY lipid droplet fluorescence, 18-24 h; for cell number change: measured here: cell count max response, cells fed with added oleic acid. A digest of the protocol: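 Drosophila S3 cells got compounds at several concentrations plus oleic acid (400 uM solution). Laser-scanning cytometry with 488 nm excitation read lipid droplets at 500-530 nm and cells at 575-640 nm. Percent activity was relative to 20 uM Triacsin C.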
(In qHTS, concentration-response curves come from the screen itself.)

Setting [1] is: measured here: lipid fluorescence (Fed channel) AC50, cells fed with added oleic acid.
[2] abbreviates: measured here: cell number channel AC50, cells fed with added oleic acid.

A word on the AC50: it is the concentration at which the activity in the assay is half-maximal. `O=C(/C=C/c1ccccc1Br)c1ccc2c(c1)OCO2`: the cell number change was determined as 19.3%. Also, the AC50 under setting [1] is 29.1 µM [falling, single point].

In the case of `COc1cc(NC(=O)COc2ccc(C)c(C)c2)ccc1NC(=O)c1ccco1`, the cell number change is -25%.

With `CC1(C)CC(C(CC(=O)O)c2ccccc2)CCO1` (stereo unspecified), the cell number change came out at 32%. Also, the concentration at half-maximal activity (AC50) under setting [2] is 29.1 µM [rising, single point]. Under setting [1], the AC50 is 29.1 µM [rising, single point].

As to `CC(C)Cc1cc(C(=O)Nc2sc3c(c2C#N)CCC3)no1`, the AC50 under setting [2] was 0.231 µM [rising, full curve, poor fit].

Take `O=C(COC(=O)CC1CC2CCC1C2)Nc1c(F)cccc1F` (stereo unspecified): the cell number change was -25.4%.

Turning to `CCOc1ccc(/C=C2\SC(=S)N(CC(=O)N(CCO)C(C)(C)C)C2=O)cc1`, the cell number change is -42.3%. Also, the AC50 under setting [2] is 23.1 µM [falling, partial curve, poor fit]. For the same compound, under setting [1], the AC50 was 29.1 µM [falling, single point].

Regarding `O=C(COC(=O)c1c(F)cccc1F)Nc1ccc2c(c1)OCO2`, the cell number change is -15.3%.

As for `COC(=O)CN1C(=O)CC(C)(C)S(=O)c2ccccc21` (stereo unspecified), the cell number change is -48.9%. The AC50 under setting [2] was 16.4 µM [falling, single point]. In addition, under setting [1], the AC50 is 8.2 µM [falling, partial curve].

As for `COC(=O)c1cc(C)nc2c1c(C)nn2-c1ccccc1`, the cell number change is 1.16%.

Regarding `CN(C)S(=O)(=O)c1cccc(NC(=O)CN(CCO)CC(=O)Nc2cccc(S(=O)(=O)N(C)C)c2)c1`, the AC50 is 2.59 µM [rising, partial curve, poor fit] under setting [2] and 29.1 µM [rising, single point] under setting [1].

`CCc1ccc(C(=O)NC(CC(C)C)C(=O)O)cc1` (stereo unspecified): the cell number change was 7.37%. For the same compound, the AC50 under setting [1] was 29.1 µM [falling, single point].

Take `CCN(c1ccccc1)S(=O)(=O)c1ccc(Cl)c(C(=O)O)c1`: the cell number change was -19.3%. In addition, the AC50 under setting [1] is 4.61 µM [falling, partial curve, poor fit].

Turning to `O=C(C1CCCCC1)N1CCCC(c2nc3c(nnn3Cc3ccccc3)c(=O)[nH]2)C1` (stereo unspecified), the cell number change was -29.4%. Also, the AC50 under setting [1] was 0.146 µM [falling, partial curve, poor fit].

For `O=C(NCc1ccccn1)c1ccc(Cl)c(NC2=NC3CS(=O)(=O)CC3S2)c1` (stereo unspecified), the cell number change was -21.7%. Moreover, under setting [1], the AC50 is 10.3 µM [falling, partial curve, poor fit].

For the compound `CN(C)c1cccc(NC2=CC(=[N+]3CCOCC3)CC(C)(C)C2)c1`, the cell number change is -6.77%. The AC50 under setting [2] is 0.058 µM [falling, full curve, poor fit].

For `CCN(CC)c1ccc(/C=C2\C(=O)c3ccc(C(=O)O)cc3C2=O)cc1`, the cell number change was -145%. The AC50 under setting [2] was 29.1 µM [falling, single point]. Moreover, the AC50 under setting [1] was 29.1 µM [falling, partial curve].

On to `CCOC(=O)c1[nH]c2ccccc2c1NC(=O)c1ccc(S(=O)(=O)N2CCCCC2)cc1`, for which the cell number change is -28.9%. In addition, under setting [1], the AC50 was 5.8 µM [falling, partial curve].

Take `COc1ccccc1NS(=O)(=O)c1cccc(C(=O)N/N=C/c2ccc([N+](=O)[O-])o2)c1`: the cell number change was -36.2%. Further, under setting [2], the AC50 is 32.6 µM [falling, single point]. Besides, the AC50 under setting [1] is 18.4 µM [falling, single point].

As for `O=C(O)CN1C(=O)/C(=C\c2cn(CC(=O)N3CCOCC3)c3ccccc23)SC1=S`, the cell number change was -38.5%. In addition, the AC50 under setting [2] was 0.651 µM [falling, full curve]. For the same compound, the AC50 under setting [1] was 7.31 µM [falling, partial curve].

Consider `CC(C)(C)c1ccc(COc2ccsc2C(=O)O)cc1`, for which the cell number change is -20.2%. Besides, the AC50 under setting [2] is 1.16 µM [falling, single point].

Consider `COc1cccc(NC(=O)CNC(C)CCC(C)C)c1` (stereo unspecified), for which the cell number change is -19.7%. The AC50 under setting [1] was 14.6 µM [falling, single point].

`O=c1c2c(nc3c(-c4ccccc4)c[nH]n13)CCC2`: the cell number change amounted to 5.19%. Further, the AC50 under setting [1] is 0.259 µM [falling, full curve, poor fit].

In the case of `Cc1ccccc1NC(=O)Nc1nc2ccc(S(C)(=O)=O)cc2s1`, the cell number change stood at 33.4%. Under setting [2], the AC50 was 14.6 µM [rising, partial curve, poor fit].

As to `Cc1ccc(CNC(=O)CSc2nc3ccccc3c(=O)n2CCCO)cc1`, the cell number change is 73.6%. For the same compound, the concentration at half-maximal activity (AC50) under setting [2] is 4.61 µM [rising, partial curve].

With `OCC[C@@H]1C[C@@H](O)[C@H](O)[C@@]2(Cc3ccccc3CO2)O1`, the cell number change came out at 22.2%.

For `CC(=O)c1ccc(-c2nnc(CCC(=O)N3CCCC(C(=O)CC(C)C)C3)o2)s1` (stereo unspecified), the cell number change is -6.12%.

Take `O=C(CSc1ncn[nH]1)c1cccc([N+](=O)[O-])c1`: the cell number change was -33.7%. Also, under setting [1], the AC50 was 13 µM [falling, partial curve, poor fit].

Consider `CCOC(=O)c1cc(C)[nH]c(=S)c1C#N`, for which the cell number change was -14.7%.

On to `COC(=O)[C@H](Cc1ccccc1)NC(=O)NCc1ccc(C)cc1`, for which the cell number change amounted to 6.9%. Further, the AC50 under setting [1] is 29.1 µM [falling, single point].

Regarding `COc1ccccc1N1CCN(C(=O)Nc2ccc([N+](=O)[O-])cc2)CC1`, the cell number change is 8.96%.

On to `CN1C=CC=C/C1=C1/N=C(c2ccccc2)OC1=O`, for which, under setting [1], the AC50 is 0.517 µM [falling, single point].

With `Cc1cc(C)nc(-n2nc(C)cc2NC(=O)c2ccc(S(=O)(=O)N3CCOCC3)cc2)n1`, the cell number change worked out at 6.29%. For the same compound, under setting [2], the AC50 was 0.461 µM [falling, single point].

Take `O=C(O)/C(=C\c1ccccc1OC(F)F)c1ccc(-c2ccccc2)cc1`: the cell number change amounted to 2.56%. Also, under setting [1], the concentration at half-maximal activity (AC50) is 0.058 µM [rising, partial curve, poor fit].

With `CC1(C)CC(=O)C(N=Nc2cc(Cl)c(Cl)c(Cl)c2)=C(O)C1`, the cell number change was found to be 6.14%. Moreover, under setting [1], the AC50 is 0.00517 µM [rising, full curve, poor fit].

Turning to `CCOc1ccc(S(=O)(=O)n2cc(-c3ccc(F)cc3)c(N)n2)cc1`, the cell number change is -10.7%. In addition, the AC50 under setting [1] is 0.92 µM [rising, full curve].

Regarding `CCCCNC(=O)c1cc2c(C)cc(C)cc2[nH]1`, the cell number change amounted to 8.68%. Moreover, the AC50 under setting [1] was 0.291 µM [rising, full curve, poor fit].

With `CCOC(=O)c1nn(-c2ccccc2)c(=O)cc1SC1CCCCC1`, the cell number change worked out at 32.4%. The AC50 under setting [1] is 3.66 µM [rising, partial curve].

Take `CCCOc1ccc(C(F)(F)F)cc1NC(=O)CCc1c(C)noc1C`: the cell number change was -3.8%.

As to `O=C(COC(=O)CNC(=O)c1ccccc1F)NC12CC3CC(CC(C3)C1)C2`, the cell number change is -0.223%. Further, the half-maximal activity concentration (AC50) under setting [1] was 0.366 µM [rising, full curve].

With `O=C(OCc1nnc(-c2ccccc2)o1)c1cc(=O)[nH]c2ccccc12`, the cell number change was 19.3%.

Turning to `C=CCn1c(SCC(=O)NC2CC2)nnc1-c1cccs1`, the cell number change is 9.38%.

For the compound `O=C(Oc1ccc(-c2ccccc2)cc1)N1CCCCC1`, the cell number change was 12.5%. In addition, under setting [1], the AC50 was 2.59 µM [falling, full curve, poor fit].

For the compound `CCOc1ccc(C2=NNC(c3cccs3)=Nc3ccc(OC)cc32)cc1`, the cell number change was -40.6%. The AC50 under setting [2] is 29.1 µM [falling, single point]. Under setting [1], the half-maximal activity concentration (AC50) is 18.4 µM [falling, single point].

For the compound `COc1cccc(N2CCN(C(=O)CN(C)S(=O)(=O)c3ccc4c(c3)CCC(=O)N4)CC2)c1`, the cell number change is -29.9%. For the same compound, the AC50 under setting [1] is 4.11 µM [rising, full curve].

As for `O=C(CN1CCN(c2ccc(F)cc2)CC1)N1N=CCC1c1ccccc1` (stereo unspecified), the cell number change stood at 22.3%.

In the case of `CC(=O)N1CCN(c2ncnc3ccccc23)CC1`, the cell number change turned out to be 18.5%. Besides, the AC50 under setting [1] was 0.651 µM [rising, partial curve, poor fit].

`CN(CC(=O)Nc1ccc(F)c(F)c1F)C(=O)CC1CCCCC1`: the cell number change is -16.6%. In addition, under setting [2], the AC50 is 3.66 µM [falling, partial curve, poor fit]. The AC50 under setting [1] is 0.461 µM [falling, partial curve, poor fit].

As for `COc1cccc(C(c2c(NC(=O)c3ccco3)sc(C)c2C)N2CCOCC2)c1` (stereo unspecified), the half-maximal activity concentration (AC50) under setting [1] is 18.4 µM [falling, partial curve].

For `CSc1nccc(NC(=O)c2ccc(C(C)(C)C)cc2)n1`, the cell number change is -47%. The AC50 under setting [2] was 32.6 µM [falling, single point]. Besides, under setting [1], the half-maximal activity concentration (AC50) is 32.6 µM [falling, single point].

With `CC1CCCN(C(=O)Cn2c(=O)oc3ccccc32)C1` (stereo unspecified), the cell number change was -1.58%. For the same compound, the AC50 under setting [1] is 16.4 µM [falling, single point].

Take `Cn1c(=O)n(CCc2ccccc2)c(=O)c2c1nc1n2CCN1Cc1ccco1`: the cell number change was -28.7%. Also, the AC50 under setting [1] was 18.4 µM [rising, single point].

In the case of `CCSC1=C(C#N)C(c2cccc(OC)c2)CC(=O)N1` (stereo unspecified), the cell number change was -123%. Under setting [2], the AC50 was 29.1 µM [falling, single point]. Besides, under setting [1], the AC50 is 6.51 µM [falling, single point].

As to `CC1(C)CC(=O)C2=C(C1)Oc1ncn3nc(-c4cccnc4)nc3c1C2c1ccccc1` (stereo unspecified), the cell number change is -2.83%.

With `CCN(CCO)C(=O)C(c1ccccc1)c1ccccc1`, the cell number change is -79.6%. Also, the AC50 under setting [2] was 18.4 µM [falling, single point]. In addition, the AC50 under setting [1] is 14.6 µM [falling, partial curve].

With `Cc1ccc(NS(=O)(=O)c2cccc(C(=O)N3CCOCC3)c2)cc1`, the cell number change was found to be 4.07%.

Turning to `COC(=O)C1C(c2ccc(OC)cc2)NC(=O)NC1(O)C(F)(F)Cl` (stereo unspecified), the cell number change is -32%. Further, the AC50 under setting [1] was 18.4 µM [falling, partial curve].

In the case of `O=C(Nc1cccnc1)c1ccccc1F`, the cell number change came to 21%.

In the case of `CCOc1ccc(C(=O)NNC2CC(=O)N(CCc3ccccc3)C2=O)cc1OC` (stereo unspecified), the cell number change was -6.66%. For the same compound, under setting [1], the AC50 was 6.51 µM [rising, single point].

As for `COc1ccc(OC)c(NC(=O)C2CCN(S(=O)(=O)c3ccc4c(c3)OCCO4)CC2)c1`, under setting [1], the concentration at half-maximal activity (AC50) is 0.731 µM [rising, partial curve, poor fit].

As to `CCCCOc1ccc(S(=O)(=O)NNC(=O)c2cc3ccccc3o2)cc1`, the cell number change was -50%. Further, under setting [2], the AC50 was 4.11 µM [falling, partial curve]. Further, the AC50 under setting [1] was 2.91 µM [falling, partial curve].

With `CCNC(=O)CSc1nnc(-c2cccs2)o1`, the cell number change is -18.1%.

Turning to `Cc1oc(CN2CCOCC2)cc1C(=O)O`, the cell number change is -17.8%.

`Cc1ccccc1S(=O)(=O)Cc1ccc(C(=O)NC2CC2)o1`: the cell number change is -16.5%.

Values taken from PubChem BioAssay AID2685 (National Center for Advancing Translational Sciences (NCATS), 2010).
